Experimental data taken from doi:10.1101/2025.01.08.631631.
No constants are given. Whether binding was seen depends on the method and setting. In cells and extracts the contact can be indirect. Some results given as binding are weak or reduced against the parent protein; the word gives no strength.

The chains behind the UniProt entries cited, without tags or fusion partners.
UniProt P03427: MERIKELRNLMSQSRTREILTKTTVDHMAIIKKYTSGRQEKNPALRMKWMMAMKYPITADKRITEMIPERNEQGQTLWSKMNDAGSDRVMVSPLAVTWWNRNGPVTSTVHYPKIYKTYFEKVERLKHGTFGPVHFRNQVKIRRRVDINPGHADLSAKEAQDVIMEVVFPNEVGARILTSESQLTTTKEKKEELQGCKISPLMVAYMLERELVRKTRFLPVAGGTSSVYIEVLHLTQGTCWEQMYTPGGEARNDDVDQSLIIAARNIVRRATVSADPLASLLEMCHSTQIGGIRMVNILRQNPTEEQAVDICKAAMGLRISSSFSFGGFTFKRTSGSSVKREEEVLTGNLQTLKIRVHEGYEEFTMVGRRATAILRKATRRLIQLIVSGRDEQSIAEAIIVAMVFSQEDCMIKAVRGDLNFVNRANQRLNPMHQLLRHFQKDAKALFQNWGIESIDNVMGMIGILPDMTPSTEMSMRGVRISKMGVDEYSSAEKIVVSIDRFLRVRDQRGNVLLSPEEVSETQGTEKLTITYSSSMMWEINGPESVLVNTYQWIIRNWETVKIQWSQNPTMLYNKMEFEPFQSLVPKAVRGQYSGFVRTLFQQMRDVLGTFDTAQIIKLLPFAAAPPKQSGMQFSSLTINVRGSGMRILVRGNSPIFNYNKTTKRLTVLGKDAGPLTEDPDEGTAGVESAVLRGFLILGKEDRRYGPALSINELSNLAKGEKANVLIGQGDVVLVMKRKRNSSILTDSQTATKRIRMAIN
UniProt P15682: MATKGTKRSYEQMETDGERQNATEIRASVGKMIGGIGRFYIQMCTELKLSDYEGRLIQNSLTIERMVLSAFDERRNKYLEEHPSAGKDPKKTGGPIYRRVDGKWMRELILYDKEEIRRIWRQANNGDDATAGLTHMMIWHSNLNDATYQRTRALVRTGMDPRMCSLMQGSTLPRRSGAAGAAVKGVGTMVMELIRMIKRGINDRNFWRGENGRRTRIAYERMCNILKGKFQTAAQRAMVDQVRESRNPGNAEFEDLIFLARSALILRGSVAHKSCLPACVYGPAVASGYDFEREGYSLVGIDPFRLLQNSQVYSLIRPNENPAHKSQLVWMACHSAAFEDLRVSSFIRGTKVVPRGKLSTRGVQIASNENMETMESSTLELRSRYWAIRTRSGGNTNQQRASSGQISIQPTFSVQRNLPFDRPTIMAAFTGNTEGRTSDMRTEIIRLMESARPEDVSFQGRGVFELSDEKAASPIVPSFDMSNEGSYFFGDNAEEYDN

Biological target: PB2 carrying a strep-tag (WSN PB2-strep), RdRp subunit of influenza A/WSN/1933(H1N1) (influenza A virus A/WSN/1933(H1N1)) (UniProt P03427)
Assay: pull-down

NP (nucleoprotein) of influenza A/WSN/1933(H1N1) (from UniProt P15682 1-498)
binding: binds
